Measured values: patent US8404650B2, “Methods of treating cancer with doxazolidine and prodrugs thereof” (priority 2005, dated 2013)

Tested on: MCF-7/Adr cells
Assay: Functional measure of hydrolysis: pre-hydrolysis in RPMI medium or human serum, then growth of MCF-7/Adr cells
Type: cell-based
Conditions: start 1000 nM equivalents, RPMI 1640, 37° C.
Description: Hydrolysis of Doxaz or DoxF in RPMI medium was performed by dissociating the cells with trypsin/EDTA, counting and then suspending the cells in growth media to a concentration of 5×10^3 cells/mL. This cell suspension was dispensed in 200 μL aliquots (1000 cells/well) into the inside wells of 96-well tissue culture plates. Plates were then incubated for 24 h at 37° C. in a humidified atmosphere of 5% CO2, and 95% air. The medium was replaced with 180 μL of growth medium prior to addition of the drug. RPMI media (no serum added) was divided into 5 mL aliquots in conical vials and heated to 37° C. in a constant temperature bath. Doxaz and DoxF were dissolved in DMSO at a concentration of 1 mM equivalents. The concentration was then corrected by measuring the solution absorbance at 480 nm (ε=11,500 M^−1 cm^−1). Drug solution (50 μl) was added to an individual conical vial and the drug was allowed to hydrolyze (at 10 μM) for 0, 10, 20, 30, 45, 60, 75 or 90 min. Experiments were performed such that all hydrolysis times would end simultaneously. […] The cells were then incubated for 5 days, and the extent of colony formation was determined using a crystal violet staining assay measuring optical density at 588 and 770 nm. […]

SMILES | Time for hydrolysis at which 50% growth inhibition remains
COc1cccc2c1C(=O)c1c(O)c3c(c(O)c1C2=O)C[C@@](O)(C(=O)CO)C[C@@H]3O[C@H]1C[C@@H]2NCO[C@@H]2[C@H](C)O1 [Doxaz, Doxazolidine] | about 8 min
COc1cccc2c1C(=O)c1c(O)c3c(c(O)c1C2=O)C[C@@](O)(C(=O)CO)C[C@@H]3OC1CC2C(OCN2CN2COC3C(C)OC(O[C@H]4C[C@](O)(C(=O)CO)Cc5c(O)c6c(c(O)c54)C(=O)c4c(OC)cccc4C6=O)CC32)C(C)O1 (some centres unmarked) [DoxF, Doxoform, reference compound] | about 13 min
